Reference: article PMC11315920
Results are given in words; binding and its absence hold for the method and conditions named. In cells and extracts the contact can be indirect. These calls come from enrichment with a bait or labelling near it, and not all partners need be listed.

Sequences of proteins named here, by UniProt entry; tags and fusion partners are left off.
UniProt P24782: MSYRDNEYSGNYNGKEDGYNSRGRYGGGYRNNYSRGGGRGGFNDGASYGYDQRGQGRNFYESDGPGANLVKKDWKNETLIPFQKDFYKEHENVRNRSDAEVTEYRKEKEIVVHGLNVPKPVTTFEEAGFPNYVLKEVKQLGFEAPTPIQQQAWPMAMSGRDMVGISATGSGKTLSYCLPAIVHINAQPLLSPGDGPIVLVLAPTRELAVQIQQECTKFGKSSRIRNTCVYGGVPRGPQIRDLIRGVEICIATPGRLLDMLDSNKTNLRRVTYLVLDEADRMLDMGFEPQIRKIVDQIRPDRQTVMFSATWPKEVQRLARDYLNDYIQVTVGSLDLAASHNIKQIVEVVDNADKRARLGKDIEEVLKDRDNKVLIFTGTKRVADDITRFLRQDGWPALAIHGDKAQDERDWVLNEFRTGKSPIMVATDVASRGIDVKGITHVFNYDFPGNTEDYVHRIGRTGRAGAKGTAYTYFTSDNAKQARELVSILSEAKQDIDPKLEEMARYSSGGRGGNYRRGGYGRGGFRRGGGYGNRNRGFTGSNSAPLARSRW

T1: Srp2-HTP (S. pombe) (UniProt P78814)
T1 sequence: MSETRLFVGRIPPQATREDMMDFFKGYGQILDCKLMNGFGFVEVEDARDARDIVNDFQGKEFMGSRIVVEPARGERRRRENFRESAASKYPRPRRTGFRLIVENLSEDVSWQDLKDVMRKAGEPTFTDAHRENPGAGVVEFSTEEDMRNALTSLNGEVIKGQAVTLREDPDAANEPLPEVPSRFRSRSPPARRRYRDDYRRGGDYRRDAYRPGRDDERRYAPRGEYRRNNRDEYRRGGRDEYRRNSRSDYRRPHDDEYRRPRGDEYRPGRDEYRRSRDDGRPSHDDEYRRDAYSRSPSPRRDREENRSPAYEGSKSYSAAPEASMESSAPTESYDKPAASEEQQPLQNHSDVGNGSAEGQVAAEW


Experiments:
[1] = biological target: Dbp2-HTP (S. pombe) (UniProt P24782); test: affinity purification with mass spectrometry; comparative interaction profiling: cells crosslinked with 0.01% formaldehyde for 10 min at 30 °C; HTP-tagged bait on IgG-sepharose, TEV elution, Ni-NTA agarose, imidazole elution; shotgun proteomics (LFQ), Dbp2-HTP relative to Srp2-HTP, no untagged control; n = 3 biological replicates
[2] = biological target: T1, Srp2-HTP (S. pombe); test: as above

binding [1] | binding [2] | Binder
binds |  | Yra1 homologue Mlo3 (protein, UniProt Q09330 1-199) MSMELDQSLDAIIASKPKGGIRKRRARSNKPKPTKNAKPAVNTASALKSVISEESKIIVSNLPTDVTEAQVKELFVKSIGPCKRVSLAYGPNGRSKGIATIIFSRPGDATRAYEQYEGRLVDGTRKMKVEIILDPSRQLNSLAARVSPASNASATASKNGAKSSKRKTTRRRRTPNRPKKSAEELDKEMDDYFGSNEKE
binds | binds | elongation factor Spt5 (protein, UniProt O13936 1-990) MDTNSPKSIDKDANSTEVDAAEQDAASVKINSTRASPNGSDLLNDDSEAAKITTNEKQSSPVDSHNESPNDTTINKGEDGNENEVDNVNNNDKKEDEDNVEENEEEADANEEEEEDEEDDEEDEEDEDESGGGRRKRARHDRRNQFLDIEAEVDEDEEELEDEEDEIGREDGFIEEEVGADYVGDDRRHRELDRQRQELQSVDAERLAEEYREKYGRSQTVVGDTSNVPQRLLLPSVNDPNIWAVRCKIGKEKDIVFTIMRKAMDLQYTSSPLEIISAFQRDSLVGYIYVEARKQSHVLDALNGVLNVYTNNMILVPIKEMPDLLKVQKQVVELLPGAYVRIRRGKYAGDLAQVDNLSENGLTARVRIVPRIDYSDGLKRKNSATRPQARLFNESEAFKSNPSKFSKRGPRLFLFNNEEFEDGFLVKDIRISSLITEGVNPTLDEVSKFNPNNEDLDLSSLALSVKGGHAEFQPGDHVEVYVGEQTGVSGVVENVRGSVITMVSSDGLRLDVPSRGLRKRFRHGDYVKVIAGKYKDDTGMVVRISKDEVTFLSDTLMTELTVFSRDLGEASSAQAVNSAYELHDLVQLDVNTVACIFSVDRDTYKVIDQNGGVRTVLASQITMRHSNRRGVATDRNGAEIRIGDKVKEVGGEGKQGTILHIYRAFVFLHNRDIAENNGVFSARSRNVATIAAKGARISADLTKMNPALSNGPALPPVANLKRTIGRDKAIGATVRIRRGPMKGLLGVIKDTTDANARVELHTGNKMVTIPKENLLYTTKTGELISYTEFIERSRGIRPGSISTADGPNVPNWAQGARTPAVANGSRTPAWNTGSRTPAWNSGSKTPAWNSGSRTPAWNSGNKTPAWNAGSRTPAWNSGNKTPAWNVGNKTPAWNSGAKTPAWNAGNKTPSWNNGTKTPAWNANQTPMVANGTNTSWGQTPAYGGFSETNWDTEDNSKPYTAPTPGAWAAPTPGGWDDEEGDSPKYVPPSP
binds |  | type I protein arginine N-methyltransferase (PRMT1) Rmt1 (enzyme, UniProt Q9URX7 1-340) MPGNTKKSADSGLTAKDYYFDSYSHWGIHEEMLKDDVRTLSYRDAIMQNPHLFRDKIVLDVGCGTGILSMFCARAGAKHVYGVDMSEIIHKAVQIVEVNKLSDRITLIQGKMEEIQLPVEKVDIIVSEWMGYFLLYESMLDTVLVARDRYLAPDGLLFPDRAQIQLAAIEDADYKSEKIGFWDDVYGFDFSPIKKDVWKEPLVDTVDRIAVNTNSCVILDLDLKTVKKEDLAFSSPFEITATRNDFVHAFLAWFDIEFSACHKPIKFSTGPFSRYTHWKQTVFYTHKDLTVKAGEYIRGTITCKPAEGNHRELDIDISYTFNPREPNREPVSEDLSYRMC
binds |  | Mex67 (protein, UniProt Q9Y8G3 1-596) MLRRKRERRNAVKENEMVIDTPLEKRRTPGKPRATREPPISVVITGHSKGSEDDLISFVWRKVKVRLMNISYSPASVTAVVKSQDFSRLNGLNGAAFAGDHLAIRRVDGASNVTQDYRKAKTKRSFRSVSAPSLSALATQAQRNVSKTLPQSTNETIEKLRQFLQTRYQPATKFLDLGNLQQDPLLKQMGILAEASTKSKMFPALMKVASLNFPDVISVSLSDNNLQSVTAVTTLAQTWPKLLNLSLANNRITSLSDLDPWSPKTKLPELQELVLVGNPIVTTFANRAMDYQREMVSRFPKLRLLDGNSINSEIIASQSTVPFPVYQSFFDKVETEQIVNSFLAAFFKGWDENRSALVNQLYSPNATFSISLNASNVRTNFSQKTDTKKWGAYKMKSRNLLYSQSQKESKSRLFNGHEEISNAVKSLPATAHDLSDRSQWVFDGWNLVLPSVGAAIKIVVHGQFEEPQNKRLLRSFDRTLLILPGGSTGILIINDLLVIRSFAGSLGWLPGQSSVRTSNNAMSASASKPSDIVQPRPEQAMLDTRQQIVLKIKAETGLNDYYAHMCCEQNNWDYNSALASFLELKSRNVIPAEAFS
 | binds | SR protein kinase Dsk1 (enzyme, UniProt P36616 1-544) MGSDGSSLSPKVSQPGHTEIVDHVSEKVITNGKNVNKKVNAEVDGKSMVEKVKTHEENAEDYHYGGYHPVYIGEEFHHRRYVVERKLGWGHFSTVWLAYDRAAKRRVALKVVRSAEHYRETSIDEIRILQKIREGDEKHLGKKHIISLLDYFVHRGPNGAHVCMVFEVLGENLLSLIQSYGHRGVPVGIVKQIAYQLLIALDYLHRECGIIHTDLKPENVLICIDQDALQHIEAPATTSSPTSNTSSSKTRNNTGYTAKAPIIKRGQSVDNSAQERKTFAKNPTKNSKPAGQVIPSSPFTSTLSRFPSLEGAVSEISLRDSQKHNSHPNSPFSSGDNSLILDGVNGSQEPVPKITVKIADLGNACWTRKHFTNDVQTRQYRSPEVILGCRWGASADCWSFACIIFELLTGDYLFDPRNGNSYSKEDDHIAQIIELLVNYPKQMALSGKHSRDLFNRRGELRNIHKLKFWPLKDVLEQKYHFSAELAQQISDFLSPMLCFDPAKRTNAGYMSNSPWLREVADPTFKIETTGATGEDVPGWATEIR
binds |  | Red1, a core component of MTREC (protein, UniProt Q9UTR8 1-712) MSRSINLDELRKKALESKKKNEEDESNDSDKEDGEISEDDPVIDQSNSVPPMKVPTFPEQIPQLPPFDRFPGTNANFFPFGAPFMLPPALMFGPNTVPFFPQTASSNKTFSKRKRSSENSFNNRNKAKSSETSDSSNTSQSFKENRALKDTATSRPLALSSDTSYQKSEKAKSEKSPFLSTSKNSDANYSKTTNQKEAEKAVSQLFEVGVRFNDFIAEGIEPSVVHTLFLKLGLDSSSASSQGSLTLSADKAARSAKLRKIDSNLSDTHILPGDNGTPTVLPERKNLISLPLLKQDDWLSSSKPFGSSTPNVVIEFDSDDDGDDFSNSKIEQSNLEKPPSNSENGLTMSRSDYLALLRNKEEEIRRMTKLILRLESNKKPYRSPTSAADMKLPSVPVAAVDNKSKTHLDTFEKVVDLSSKADFVEAGPSISSSGASSSAATTNSDTTEQILEAPWLRKTEQIAVVHEEHPAQIKKSEIDILNNLIEKEEGELTKYQTLVKSKTEILTQLYTRKKQLLEQQGKGNVACLPKESDLSMDSITEVSAQADENSSQILSSKTSNAPNGTTETDFEDKVPLVDYISPFYRFKSYRFNQQFVERVPLKYRSLTYSNKIEPMKVFCKYETTGGVCNDDHCEASHFRDIKMTDDEIIQDLSRYIEGNDEIEKESYKSGLDIVMKNTDENTDFVDVATRIVEYHNLWKSERMTIPVAKVSI
 | binds | Rpb8 (protein, UniProt Q92399 1-125) MSESVLLDEIFTVTSVDKQKYQRVSRITAVSGQNDMNLTLDINSQIYPLEKDATFSLQITSNLNSPDLKEAADYIMYGKVYRVEEAKDEKVSVYVSFGGLLMAIEGSHRKLYRLSLDHVYLLLRR
